Results: the supplement of paper PMC10849652
This is one part of the list.

By UniProt entry, the sequences of proteins in these tests, tags left out. Where a name states a change or a piece, a line headed by the entry shows the natural chain unless it says otherwise.
UniProt O60234, whole entry, looked up: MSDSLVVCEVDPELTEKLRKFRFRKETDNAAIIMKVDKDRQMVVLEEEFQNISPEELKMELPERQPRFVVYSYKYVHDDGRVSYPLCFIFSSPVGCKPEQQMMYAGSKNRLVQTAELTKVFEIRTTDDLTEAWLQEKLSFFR
UniProt Q9UKD1: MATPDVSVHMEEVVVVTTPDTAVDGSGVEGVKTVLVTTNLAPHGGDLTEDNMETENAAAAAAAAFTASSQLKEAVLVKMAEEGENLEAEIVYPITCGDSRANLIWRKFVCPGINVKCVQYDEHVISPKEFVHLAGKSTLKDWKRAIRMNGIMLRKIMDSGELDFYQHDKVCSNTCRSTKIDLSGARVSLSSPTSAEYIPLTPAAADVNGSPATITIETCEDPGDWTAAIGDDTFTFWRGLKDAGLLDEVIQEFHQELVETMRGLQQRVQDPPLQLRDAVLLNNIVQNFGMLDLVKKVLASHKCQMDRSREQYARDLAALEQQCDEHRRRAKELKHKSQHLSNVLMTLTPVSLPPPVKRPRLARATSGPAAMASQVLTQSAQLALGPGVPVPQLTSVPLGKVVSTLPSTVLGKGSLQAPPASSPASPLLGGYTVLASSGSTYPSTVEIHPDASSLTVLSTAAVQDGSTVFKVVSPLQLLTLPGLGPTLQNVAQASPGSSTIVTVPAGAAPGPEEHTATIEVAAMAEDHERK
UniProt Q9Y3E0: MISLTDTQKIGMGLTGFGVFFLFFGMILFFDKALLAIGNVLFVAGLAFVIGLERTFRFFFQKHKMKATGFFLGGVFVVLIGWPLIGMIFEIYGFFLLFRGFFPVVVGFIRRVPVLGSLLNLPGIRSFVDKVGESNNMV
UniProt Q86VQ1: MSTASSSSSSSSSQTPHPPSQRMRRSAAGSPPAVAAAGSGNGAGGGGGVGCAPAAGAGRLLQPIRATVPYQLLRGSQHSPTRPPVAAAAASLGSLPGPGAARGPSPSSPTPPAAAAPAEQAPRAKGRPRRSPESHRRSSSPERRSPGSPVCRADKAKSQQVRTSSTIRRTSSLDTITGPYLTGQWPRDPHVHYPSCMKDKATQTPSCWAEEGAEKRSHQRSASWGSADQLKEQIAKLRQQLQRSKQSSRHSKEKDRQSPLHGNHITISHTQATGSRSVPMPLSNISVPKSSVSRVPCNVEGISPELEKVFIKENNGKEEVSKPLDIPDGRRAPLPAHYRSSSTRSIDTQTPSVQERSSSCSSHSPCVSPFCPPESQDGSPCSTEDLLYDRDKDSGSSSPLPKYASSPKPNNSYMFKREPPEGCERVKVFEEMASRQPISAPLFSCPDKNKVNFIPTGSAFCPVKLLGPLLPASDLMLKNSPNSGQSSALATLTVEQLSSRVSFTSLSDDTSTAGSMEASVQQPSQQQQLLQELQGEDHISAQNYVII
UniProt Q9Y2X7: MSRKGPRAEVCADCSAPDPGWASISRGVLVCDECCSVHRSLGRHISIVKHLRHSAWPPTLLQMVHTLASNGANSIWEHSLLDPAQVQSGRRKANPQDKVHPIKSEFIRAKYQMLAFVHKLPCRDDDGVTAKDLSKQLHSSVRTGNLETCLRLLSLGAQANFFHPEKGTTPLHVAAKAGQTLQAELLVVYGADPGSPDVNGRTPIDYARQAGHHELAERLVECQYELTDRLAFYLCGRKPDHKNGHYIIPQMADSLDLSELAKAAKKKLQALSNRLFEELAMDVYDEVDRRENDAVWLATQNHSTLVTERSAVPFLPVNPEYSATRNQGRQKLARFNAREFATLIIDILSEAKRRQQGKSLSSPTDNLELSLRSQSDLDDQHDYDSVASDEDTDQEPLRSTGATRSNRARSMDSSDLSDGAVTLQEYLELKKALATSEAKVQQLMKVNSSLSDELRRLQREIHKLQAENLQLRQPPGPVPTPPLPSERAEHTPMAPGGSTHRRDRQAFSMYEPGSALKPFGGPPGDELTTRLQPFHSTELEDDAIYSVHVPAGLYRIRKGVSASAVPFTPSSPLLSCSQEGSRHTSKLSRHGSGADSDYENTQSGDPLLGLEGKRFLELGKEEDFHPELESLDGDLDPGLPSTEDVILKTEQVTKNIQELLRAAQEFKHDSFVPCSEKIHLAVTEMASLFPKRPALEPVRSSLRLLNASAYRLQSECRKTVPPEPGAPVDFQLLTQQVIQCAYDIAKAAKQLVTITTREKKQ
UniProt Q96IJ6: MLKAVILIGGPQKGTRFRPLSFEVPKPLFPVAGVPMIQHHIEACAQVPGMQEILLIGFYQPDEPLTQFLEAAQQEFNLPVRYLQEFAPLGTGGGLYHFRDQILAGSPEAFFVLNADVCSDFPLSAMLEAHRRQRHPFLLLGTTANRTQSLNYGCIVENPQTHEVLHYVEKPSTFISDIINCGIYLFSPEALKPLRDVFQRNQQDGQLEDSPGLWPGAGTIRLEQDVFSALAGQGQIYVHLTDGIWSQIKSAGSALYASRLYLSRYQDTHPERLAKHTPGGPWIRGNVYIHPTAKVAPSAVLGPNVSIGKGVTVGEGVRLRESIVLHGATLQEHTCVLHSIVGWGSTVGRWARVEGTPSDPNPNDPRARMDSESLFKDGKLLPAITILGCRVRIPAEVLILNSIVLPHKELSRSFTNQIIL
UniProt P00505: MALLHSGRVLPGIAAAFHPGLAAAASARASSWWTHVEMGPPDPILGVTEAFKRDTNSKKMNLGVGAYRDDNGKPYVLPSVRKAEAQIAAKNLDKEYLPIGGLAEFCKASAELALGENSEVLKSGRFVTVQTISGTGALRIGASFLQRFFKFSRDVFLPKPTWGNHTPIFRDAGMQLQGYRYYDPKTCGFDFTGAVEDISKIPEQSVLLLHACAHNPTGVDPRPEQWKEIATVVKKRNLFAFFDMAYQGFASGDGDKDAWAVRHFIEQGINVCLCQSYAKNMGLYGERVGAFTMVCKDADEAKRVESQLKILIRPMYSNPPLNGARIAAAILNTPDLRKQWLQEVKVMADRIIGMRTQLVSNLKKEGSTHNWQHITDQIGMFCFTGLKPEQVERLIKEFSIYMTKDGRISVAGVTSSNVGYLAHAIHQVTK
UniProt O14653: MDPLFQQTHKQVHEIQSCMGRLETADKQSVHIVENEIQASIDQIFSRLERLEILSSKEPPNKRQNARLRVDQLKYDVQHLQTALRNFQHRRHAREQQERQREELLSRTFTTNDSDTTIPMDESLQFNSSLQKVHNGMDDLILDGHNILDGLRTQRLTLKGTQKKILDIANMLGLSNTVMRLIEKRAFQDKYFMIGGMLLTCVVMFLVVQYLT
UniProt Q8N2G8: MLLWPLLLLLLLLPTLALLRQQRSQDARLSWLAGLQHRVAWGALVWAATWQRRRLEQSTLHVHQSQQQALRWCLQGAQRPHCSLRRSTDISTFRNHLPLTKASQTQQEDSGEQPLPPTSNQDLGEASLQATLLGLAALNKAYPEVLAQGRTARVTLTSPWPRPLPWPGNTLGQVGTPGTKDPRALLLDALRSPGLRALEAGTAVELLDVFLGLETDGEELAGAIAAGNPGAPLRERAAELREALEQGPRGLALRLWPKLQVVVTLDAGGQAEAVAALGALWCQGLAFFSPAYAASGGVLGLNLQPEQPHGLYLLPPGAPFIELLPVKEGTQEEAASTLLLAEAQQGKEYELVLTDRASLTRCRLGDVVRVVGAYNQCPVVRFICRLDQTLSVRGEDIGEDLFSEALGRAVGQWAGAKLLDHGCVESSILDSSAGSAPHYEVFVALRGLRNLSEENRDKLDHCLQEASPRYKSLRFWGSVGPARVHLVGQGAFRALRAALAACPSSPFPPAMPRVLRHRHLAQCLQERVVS
UniProt O95249: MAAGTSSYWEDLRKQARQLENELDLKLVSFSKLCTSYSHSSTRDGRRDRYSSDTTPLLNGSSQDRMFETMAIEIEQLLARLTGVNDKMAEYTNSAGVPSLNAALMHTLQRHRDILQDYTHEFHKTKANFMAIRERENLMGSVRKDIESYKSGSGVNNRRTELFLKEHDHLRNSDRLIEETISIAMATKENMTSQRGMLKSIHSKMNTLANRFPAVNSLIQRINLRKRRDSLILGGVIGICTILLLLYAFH
UniProt Q9UJJ9: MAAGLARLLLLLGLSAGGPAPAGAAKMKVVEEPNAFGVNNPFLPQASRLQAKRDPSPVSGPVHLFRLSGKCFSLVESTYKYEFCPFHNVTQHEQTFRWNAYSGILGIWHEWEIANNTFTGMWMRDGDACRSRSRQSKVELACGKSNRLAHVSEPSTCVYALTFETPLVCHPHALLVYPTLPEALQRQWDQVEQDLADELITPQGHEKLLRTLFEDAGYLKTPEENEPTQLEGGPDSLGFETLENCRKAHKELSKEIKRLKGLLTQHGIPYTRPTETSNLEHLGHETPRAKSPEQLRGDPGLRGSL
UniProt O95749: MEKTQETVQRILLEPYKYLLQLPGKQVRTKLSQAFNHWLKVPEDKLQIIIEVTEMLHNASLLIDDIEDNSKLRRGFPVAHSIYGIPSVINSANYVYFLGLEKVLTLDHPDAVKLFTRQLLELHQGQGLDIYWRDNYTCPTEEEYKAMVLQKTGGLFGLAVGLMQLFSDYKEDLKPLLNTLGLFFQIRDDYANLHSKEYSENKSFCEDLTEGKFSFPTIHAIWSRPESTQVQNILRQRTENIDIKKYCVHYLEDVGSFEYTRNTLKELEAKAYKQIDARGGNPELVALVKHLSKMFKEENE
UniProt Q49A26: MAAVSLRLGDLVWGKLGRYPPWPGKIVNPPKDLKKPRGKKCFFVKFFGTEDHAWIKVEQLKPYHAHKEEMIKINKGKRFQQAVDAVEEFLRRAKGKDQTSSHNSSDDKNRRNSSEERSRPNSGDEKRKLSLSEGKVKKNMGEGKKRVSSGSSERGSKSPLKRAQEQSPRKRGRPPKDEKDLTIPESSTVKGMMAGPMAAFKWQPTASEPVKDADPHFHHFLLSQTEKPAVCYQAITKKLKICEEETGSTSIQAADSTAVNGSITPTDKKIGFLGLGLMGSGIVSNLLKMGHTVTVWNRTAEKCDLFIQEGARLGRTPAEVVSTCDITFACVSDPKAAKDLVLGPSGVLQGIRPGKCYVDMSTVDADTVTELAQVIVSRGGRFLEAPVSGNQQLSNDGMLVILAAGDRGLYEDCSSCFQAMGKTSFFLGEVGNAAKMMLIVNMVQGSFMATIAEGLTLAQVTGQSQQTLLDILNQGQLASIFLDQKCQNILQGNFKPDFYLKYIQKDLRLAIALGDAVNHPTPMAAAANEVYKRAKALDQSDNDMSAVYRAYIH
UniProt Q14344, whole entry, looked up: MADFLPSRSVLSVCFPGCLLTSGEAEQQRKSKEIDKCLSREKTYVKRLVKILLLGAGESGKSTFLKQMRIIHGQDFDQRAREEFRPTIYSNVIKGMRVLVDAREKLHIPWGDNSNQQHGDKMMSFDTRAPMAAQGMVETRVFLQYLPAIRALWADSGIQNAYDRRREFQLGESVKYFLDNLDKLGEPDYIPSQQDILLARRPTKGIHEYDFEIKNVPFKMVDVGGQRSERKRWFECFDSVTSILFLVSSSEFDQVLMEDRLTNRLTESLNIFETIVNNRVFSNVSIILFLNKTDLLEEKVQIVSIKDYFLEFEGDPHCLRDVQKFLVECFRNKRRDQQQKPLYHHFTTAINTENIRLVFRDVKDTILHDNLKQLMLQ
UniProt Q86WP2: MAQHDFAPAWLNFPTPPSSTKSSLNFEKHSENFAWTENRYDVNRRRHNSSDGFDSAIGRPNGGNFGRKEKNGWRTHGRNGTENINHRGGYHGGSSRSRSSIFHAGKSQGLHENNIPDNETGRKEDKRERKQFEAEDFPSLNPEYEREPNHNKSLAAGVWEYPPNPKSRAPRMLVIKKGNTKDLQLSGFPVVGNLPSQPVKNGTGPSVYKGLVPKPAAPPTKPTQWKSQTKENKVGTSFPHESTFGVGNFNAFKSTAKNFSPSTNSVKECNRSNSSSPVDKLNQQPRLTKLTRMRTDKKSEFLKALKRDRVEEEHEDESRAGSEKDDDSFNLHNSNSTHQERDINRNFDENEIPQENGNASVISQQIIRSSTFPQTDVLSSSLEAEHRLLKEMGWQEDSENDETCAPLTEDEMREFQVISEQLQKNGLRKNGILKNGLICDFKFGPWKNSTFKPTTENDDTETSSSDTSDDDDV
UniProt P32189: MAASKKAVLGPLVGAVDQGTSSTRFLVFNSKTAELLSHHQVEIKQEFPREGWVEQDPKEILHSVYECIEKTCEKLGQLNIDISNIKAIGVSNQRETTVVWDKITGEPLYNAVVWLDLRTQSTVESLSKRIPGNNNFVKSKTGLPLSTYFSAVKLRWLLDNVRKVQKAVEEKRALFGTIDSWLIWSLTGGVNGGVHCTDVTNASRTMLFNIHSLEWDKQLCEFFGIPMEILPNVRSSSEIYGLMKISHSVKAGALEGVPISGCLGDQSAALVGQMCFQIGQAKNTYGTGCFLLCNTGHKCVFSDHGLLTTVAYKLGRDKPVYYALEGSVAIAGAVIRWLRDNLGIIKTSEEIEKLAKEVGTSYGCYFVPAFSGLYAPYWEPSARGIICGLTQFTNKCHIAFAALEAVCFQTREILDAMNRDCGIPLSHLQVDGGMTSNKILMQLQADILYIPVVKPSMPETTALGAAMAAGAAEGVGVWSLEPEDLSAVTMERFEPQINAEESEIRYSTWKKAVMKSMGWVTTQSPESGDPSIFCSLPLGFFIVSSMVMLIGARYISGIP

How the values were obtained:
Assay in all cases: log2 fold change, soluble protein after heating vs DMSO (PISA); higher = thermal stabilisation; K562 lysate, 10 uM; active = over 0.2 and 3.5 SD of the protein, either way, in both replicates (recomputed)
alvocidib = compound: CN1CC[C@H](c2c(O)cc(O)c3c(=O)cc(-c4ccccc4Cl)oc23)[C@H](O)C1 [alvocidib]
In short: (§1)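 K562 pellets were dounce-homogenised in PBS pH 7.4 containing 1 mM MgCl2, and the crude extract, at 1 mg/mL protein, was exposed to 10 μM compound for 30 min. Aliquots were heated for 3 min across 48°C-58°C, pooled, brought to 0.5% NP-40 at 4°C and spun at 21,000xg for 90 min, with the supernatant taken as soluble protein. TMTpro 16plex LC-MS/MS with equalised channel sums quantified that protein. Values are log-two fold changes in thermal stability relative to solvent controls, taken from duplicates.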

Tubastatin A = compound: CN1CCc2c(c3ccccc3n2Cc2ccc(C(=O)NO)cc2)C1 [Tubastatin A]
In short: as §1

[1] = compound: CNC(=O)C1=CC=CC=C1NC2=NC(=NC=C2Cl)NC3=C(C=C(C=C3)N4CCOCC4)OC
In short: as §1

defactinib = compound: CNC(=O)c1ccc(Nc2ncc(C(F)(F)F)c(NCc3nccnc3N(C)S(C)(=O)=O)n2)cc1 [defactinib]
In short: as §1

[2] = compound: CNc1nc(-c2ccc3c(N)n[nH]c3c2)cc(N2C[C@@H](C(=O)NC3CCCCC3)CC[C@H]2C)n1
In short: as §1

encorafenib = compound: COC(=O)N[C@@H](C)CNc1nccc(-c2cn(C(C)C)nc2-c2cc(Cl)cc(NS(C)(=O)=O)c2F)n1 [encorafenib]
In short: as §1

[3] = compound: COC(=O)[C@H](CCSC)NC(=O)C1=C(C=C(C=C1)NC[C@H](CS)N)C2=CC=CC=C2
In short: as §1

alisertib = compound: COc1cc(Nc2ncc3c(n2)-c2ccc(Cl)cc2C(c2c(F)cccc2OC)=NC3)ccc1C(=O)O [alisertib]
In short: as §1

[4] = compound: COc1cc2nc(-c3cc(F)ccc3O)nc(N[C@@H]3CNC[C@H]3C(C)(C)O)c2cc1OC
In short: as §1

gefitinib = compound: COc1cc2ncnc(Nc3ccc(F)c(Cl)c3)c2cc1OCCCN1CCOCC1 [gefitinib]
In short: as §1

Measured: log2 fold change

GMFG (UniProt O60234)
inactive: alvocidib 0.037 | Tubastatin A -0.065 | [1] 0.026 | defactinib 0.002 | [2] -0.049 | encorafenib 0.014 | [3] -0.036 | alisertib 0.048 | [4] 0.004 | gefitinib -0.043

GMEB2 (UniProt Q9UKD1)
inactive: alvocidib -0.019 | Tubastatin A 0.023 | [1] 0.018 | defactinib 0.001 | [2] 0.054 | encorafenib -0.023 | [3] 0.007 | alisertib -0.054 | [4] -0.008 | gefitinib 0.058

GOLGA4 isoform 5 (UniProt Q13439)
inactive: alvocidib -0.07 | Tubastatin A -0.018 | [1] 0.034 | defactinib -0.006 | [2] 0.012 | encorafenib 0.016 | [3] 0.012 | alisertib -0.028 | [4] -0.013 | gefitinib 0.001

GOLT1B (UniProt Q9Y3E0)
inactive: alvocidib -0.027 | Tubastatin A 0.033 | [1] 0.012 | defactinib -0.027 | [2] 0.002 | encorafenib 0.004 | [3] -0.027 | alisertib -0.068 | [4] 0.042 | gefitinib -0.076

GLCCI1 (UniProt Q86VQ1)
inactive: alvocidib -0.004 | Tubastatin A -0.043 | [1] -0.022 | defactinib -0.059 | [2] 0.026 | encorafenib -0.019 | [3] 0.16 | alisertib -0.05 | [4] -0.012 | gefitinib -0.019

GIT1 (UniProt Q9Y2X7)
inactive: alvocidib 0.015 | Tubastatin A -0.04 | [1] 0.022 | defactinib 0.023 | [2] -0.084 | encorafenib 0.002 | [3] 0.026 | alisertib 0.05 | [4] -0.011 | gefitinib -0.031

GMPR (UniProt P36959)
inactive: alvocidib 0.07 | Tubastatin A 0.092 | [1] 0.005 | defactinib -0.017 | [2] 0.084 | encorafenib -0.01 | [3] -0.004 | alisertib -0.024 | [4] -0.014 | gefitinib -0.05

GPA33 (UniProt Q99795)
inactive: alvocidib -0.349 | Tubastatin A 0.103 | [1] -0.076 | defactinib -0.099 | [2] -0.193 | encorafenib 0.053 | [3] -0.027 | alisertib 0.071 | [4] 0.039 | gefitinib 0.125

GMPPA (UniProt Q96IJ6)
inactive: alvocidib -0.033 | Tubastatin A 0.009 | [1] 0.014 | defactinib -0.008 | [2] 0.025 | encorafenib 0.017 | [3] 0.107 | alisertib 0.027 | [4] 0.013 | gefitinib -0.012

GNB2 (UniProt P62879)
inactive: alvocidib -0.019 | Tubastatin A 0.028 | [1] -0.039 | defactinib -0.033 | [2] -0.042 | encorafenib 0.005 | [3] -0.003 | alisertib 0.003 | [4] 0.037 | gefitinib -0.016

GOT2 (UniProt P00505)
inactive: alvocidib 0.004 | Tubastatin A 0.015 | [1] 0.001 | defactinib 0.021 | [2] 0.026 | encorafenib -0.013 | [3] -0.035 | alisertib -0.006 | [4] 0.009 | gefitinib 0.009

GOSR2 isoform 2 (UniProt O14653)
inactive: alvocidib -0.034 | Tubastatin A -0.17 | [1] 0.015 | defactinib -0.024 | [2] 0 | encorafenib 0.017 | [3] -0.127 | alisertib 0.007 | [4] -0.039 | gefitinib 0.029

GPN1 isoform 5 (UniProt Q9HCN4)
inactive: alvocidib -0.001 | Tubastatin A 0.052 | [1] 0.094 | defactinib 0.047 | [2] 0.064 | encorafenib -0.023 | [3] -0.057 | alisertib 0.013 | [4] 0.034 | gefitinib -0.012

Random excerpt: 2 entries already listed
GMEB2 (UniProt Q9UKD1)
inactive: alvocidib -0.019 | Tubastatin A 0.023 | [1] 0.018 | defactinib 0.001 | [2] 0.054 | encorafenib -0.023 | [3] 0.007 | alisertib -0.054 | [4] -0.008 | gefitinib 0.058

GOSR2 isoform 2 (UniProt O14653)
inactive: alvocidib -0.034 | Tubastatin A -0.17 | [1] 0.015 | defactinib -0.024 | [2] 0 | encorafenib 0.017 | [3] -0.127 | alisertib 0.007 | [4] -0.039 | gefitinib 0.029

The list goes on:

GHDC (UniProt Q8N2G8)
inactive: alvocidib -0.031 | Tubastatin A -0.084 | [1] 0.027 | defactinib 0.134 | [2] 0.094 | encorafenib -0.181 | [3] -0.02 | alisertib 0.064 | [4] -0.12 | gefitinib 0.087

GMPPB isoform 2 (UniProt Q9Y5P6)
inactive: alvocidib -0.036 | Tubastatin A -0.02 | [1] 0.027 | defactinib 0.061 | [2] -0.006 | encorafenib -0.057 | [3] 0.144 | alisertib 0.014 | [4] -0.013 | gefitinib 0.051

GOSR1 (UniProt O95249)
inactive: alvocidib -0.011 | Tubastatin A -0.067 | [1] -0.038 | defactinib 0.038 | [2] 0.006 | encorafenib 0.095 | [3] -0.07 | alisertib -0.036 | [4] -0.044 | gefitinib 0.029

GIPC1 (UniProt O14908)
inactive: alvocidib 0.012 | Tubastatin A 0.007 | [1] 0.01 | defactinib -0.022 | [2] -0.032 | encorafenib 0.012 | [3] -0.009 | alisertib 0.009 | [4] 0.041 | gefitinib -0.012

GNPTG (UniProt Q9UJJ9)
inactive: alvocidib -0.011 | Tubastatin A 0.102 | [1] 0.033 | defactinib -0.051 | [2] -0.084 | encorafenib -0.1 | [3] 0.109 | alisertib 0.093 | [4] 0.023 | gefitinib 0.053

GGPS1 (UniProt O95749)
inactive: alvocidib 0.013 | Tubastatin A 0.054 | [1] 0.007 | defactinib -0.007 | [2] 0.007 | encorafenib -0.017 | [3] -0.044 | alisertib 0.02 | [4] 0.002 | gefitinib -0.011

GLYR1 (UniProt Q49A26)
inactive: alvocidib 0.013 | Tubastatin A -0.007 | [1] -0.046 | defactinib -0.084 | [2] -0.078 | encorafenib -0.001 | [3] 0.074 | alisertib -0.011 | [4] -0.046 | gefitinib -0.093

GOT1 (UniProt P17174)
inactive: alvocidib 0.004 | Tubastatin A 0.051 | [1] -0.011 | defactinib -0.02 | [2] 0.01 | encorafenib -0.021 | [3] -0.003 | alisertib 0.005 | [4] 0.005 | gefitinib -0.005

GNA13 (UniProt Q14344)
inactive: alvocidib -0.027 | Tubastatin A 0.041 | [1] -0.014 | defactinib 0.072 | [2] -0.004 | encorafenib 0.012 | [3] -0.05 | alisertib 0.002 | [4] 0.001 | gefitinib -0.007

GPBP1 isoform 2 (UniProt Q86WP2)
inactive: alvocidib -0.023 | Tubastatin A -0.112 | [1] 0.019 | defactinib -0.036 | [2] 0.128 | encorafenib 0.001 | [3] -0.02 | alisertib 0.01 | [4] 0.028 | gefitinib 0.004

GNPNAT1 (UniProt Q96EK6)
inactive: alvocidib 0.005 | Tubastatin A 0.006 | [1] 0.048 | defactinib 0.02 | [2] 0.013 | encorafenib -0.014 | [3] -0.046 | alisertib -0.003 | [4] -0.037 | gefitinib -0.097

GNL2 (UniProt Q13823)
inactive: alvocidib 0.013 | Tubastatin A -0.035 | [1] 0.06 | defactinib -0.001 | [2] -0.005 | encorafenib 0.024 | [3] 0.096 | alisertib 0.009 | [4] 0.008 | gefitinib -0.043

GK (UniProt P32189)
inactive: alvocidib -0.016 | Tubastatin A -0.019 | [1] 0.013 | defactinib -0.035 | [2] -0.065 | encorafenib 0.008 | [3] -0.01 | alisertib 0.047 | [4] -0.013 | gefitinib 0.064

GNAI2 (UniProt P04899)
inactive: alvocidib 0.028 | Tubastatin A -0.025 | [1] -0.002 | defactinib 0.013 | [2] -0.017 | encorafenib 0.009 | [3] -0.015 | alisertib 0.042 | [4] 0.019 | gefitinib -0.02

GPN2 (UniProt Q9H9Y4)
inactive: alvocidib -0.034 | Tubastatin A -0.027 | [1] -0.004 | defactinib 0.112 | [2] -0.007 | encorafenib 0.19 | [3] -0.038 | alisertib 0.008 | [4] -0.038 | gefitinib -0.001
